Measurements reported in article PMC12247140.
These are yes or no findings as the source states them, for the method shown. In cells and extracts the contact can be indirect. Some entries that bind do so weakly or less than the wild type.

Biological target: T1, musclin (UniProt P61364)
T1 sequence: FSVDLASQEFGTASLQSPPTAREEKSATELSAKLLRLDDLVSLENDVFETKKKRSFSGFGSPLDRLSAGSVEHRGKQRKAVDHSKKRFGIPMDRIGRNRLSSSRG
Test: co-IP; lysates of primary mouse PASMCs, untreated or treated with musclin (50 nM, 24 h); IP and input lysates blotted with antibodies against NPR3 and TFR1

B1: natriuretic peptide receptor 3 (receptor, UniProt P70180 41-536)
chain: EALAAQKIEVLVLLPRDDSYLFSLARVRPAIEYALRSVEGNGTGRKLLPPGTRFQVAYEDSDCGNRALFSLVDRVAAARGAKPDLILGPVCEYAAAPVARLASHWDLPMLSAGALAAGFQHKDTEYSHLTRVAPAYAKMGEMMLALFRHHHWSRAALVYSDDKLERNCYFTLEGVHEVFQEEGLHTSAYNFDETKDLDLDDIVRYIQGSERVVIMCASGDTIRRIMLAVHRHGMTSGDYAFFNIELFNSSSYGDGSWRRGDKHDSEAKQAYSSLQTVTLLRTVKPEFEKFSMEVKSSVEKQGLNEEDYVNMFVEGFHDAILLYVLALHEVLRAGYSKKDGGKIIQQTWNRTFEGIAGQVSIDANGDRYGDFSVVAMTDTEAGTQEVIGDYFGKEGRFQMRSNVKYPWGPLKLRLDETRIVEHTNSSPCKSSGGLEESAVTGIVVGALLGAGLLMAFYFFRKKYRITIERRNQQEESNIGKHRELREDSIRSHFSVA
- binding: binds
